{"source": "PubChem BioAssay AID212", "about": "(DTP/NCI, 2004)", "test_system": "BDF1 mice, colon carcinoma 38 sc, T/C %", "experiment": "NCI In Vivo Anticancer Drug Screen. Data for tumor model Colon Carcinoma 38 (subcutaneous) in B6D2F1 (BDF1) mice", "conditions": "T/C endpoint: median tumor weight (est.), higher T/C = larger tumour; for T/C: evaluated on day 20", "outline": "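Ratio of survival or tumor size, compound-treated animals relative to vehicle controls, in tumor-bearing mice.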", "key": {"[1]": {"conditions": "dose: 12.5 mg/kg/injection, schedule: Q07DX002 (ip), vehicle: Klucel (hydroxypropylcellulose) (HPC)"}, "[2]": {"conditions": "dose: 400.0 mg/kg/injection, schedule: Q07DX002 (ip), vehicle: Klucel (hydroxypropylcellulose) (HPC)"}, "[3]": {"conditions": "dose: 100.0 mg/kg/injection, schedule: Q07DX002 (ip), vehicle: saline with Tween-80"}, "[4]": {"conditions": "dose: 200.0 mg/kg/injection, schedule: Q07DX002 (ip), vehicle: saline with Tween-80"}, "[5]": {"conditions": "dose: 50.0 mg/kg/injection, schedule: Q07DX002 (ip), vehicle: Klucel (hydroxypropylcellulose) (HPC)"}, "[6]": {"conditions": "dose: 100.0 mg/kg/injection, schedule: Q07DX002 (ip), vehicle: Klucel (hydroxypropylcellulose) (HPC)"}, "[7]": {"conditions": "dose: 50.0 mg/kg/injection, schedule: Q07DX002 (ip), vehicle: water"}, "[8]": {"conditions": "dose: 200.0 mg/kg/injection, schedule: Q07DX002 (ip), vehicle: water"}}, "note": "The list does not hold the whole screen: it gathers tests that were run many times, whatever their T/C, doses with no T/C, and many T/C values between a quarter and a half above the control. Further doses and runs are listed elsewhere. T/C is the treated group as % of the vehicle group. Schedule codes are those of the source, taken here to give the interval after Q, in days (D) or hours (H), and the number of doses after X. Some T/C values carry the count of animals alive at the toxicity check (mostly the fifth day); without a count, all were alive then. Some doses were run more than once; their values stand side by side, smallest first. Some doses have a count of surviving animals in place of a T/C: the source holds a T/C of zero for them, seemingly a mark for toxic or unscored doses. Counts of survivors are from the toxicity check (mostly the fifth day) where no day follows; animals may have died later.", "data": [{"smiles": "O=C(O)/C=C/C(=O)Nc1ccc(Cl)c(Cl)c1", "values": [{"measurement": "T/C", "setting": "[1]", "value": "127 % of control"}, {"measurement": "survivor count", "setting": "dose: 25.0 mg/kg/injection, schedule: Q07DX003 (ip), vehicle: Klucel (hydroxypropylcellulose) (HPC)", "value": "6 of 10 on day 20"}, {"measurement": "survivor count", "setting": "dose: 200.0 mg/kg/injection, schedule: Q07DX003 (ip), vehicle: Klucel (hydroxypropylcellulose) (HPC)", "value": "6 of 10 on day 20"}, {"measurement": "survivor count", "setting": "[2]", "value": "3 of 9 on day 20"}, {"measurement": "survivor count", "setting": "dose: 400.0 mg/kg/injection, schedule: Q07DX003 (ip), vehicle: Klucel (hydroxypropylcellulose) (HPC)", "value": "1 of 10 on day 20"}]}, {"smiles": "Nc1n[nH]c(N)n1", "values": [{"measurement": "T/C", "setting": "dose: 100.0 mg/kg/injection, schedule: Q07DX003 (ip), vehicle: saline", "value": "55, 103 [9 of 10 alive], 108 [9 of 10 alive], 158 % of control"}, {"measurement": "T/C", "setting": "dose: 200.0 mg/kg/injection, schedule: Q07DX003 (ip), vehicle: saline with Tween-80", "value": "140 % of control"}, {"measurement": "T/C", "setting": "dose: 200.0 mg/kg/injection, schedule: Q07DX003 (ip), vehicle: saline", "value": "71, 81, 108, 147 % of control"}, {"measurement": "T/C", "setting": "dose: 400.0 mg/kg/injection, schedule: Q07DX003 (ip), vehicle: saline", "value": "57, 61, 65 [9 of 10 alive], 89 % of control"}, {"measurement": "T/C", "setting": "dose: 800.0 mg/kg/injection, schedule: Q07DX003 (ip), vehicle: saline", "value": "56, 60, 90 [9 of 10 alive], 129 % of control"}, {"measurement": "T/C", "setting": "dose: 1600.0 mg/kg/injection, schedule: Q07DX003 (ip), vehicle: saline with Tween-80", "value": "131 % of control"}, {"measurement": "T/C", "setting": "dose: 1600.0 mg/kg/injection, schedule: Q07DX003 (ip), vehicle: saline", "value": "35 [9 of 10 alive], 72 [8 of 10 alive], 80 [9 of 10 alive], 137 % of control [9 of 10 alive]"}]}, {"smiles": "CC1OC(=O)C(C(C)C)NC(=O)C(C(C)C)OC(=O)C(C(C)C)NC(=O)C(C)OC(=O)C(C(C)C)NC(=O)C(C(C)C)OC(=O)C(C(C)C)NC(=O)C(C)OC(=O)C(C(C)C)NC(=O)C(C(C)C)OC(=O)C(C(C)C)NC1=O", "note": "(stereo unspecified)", "values": [{"measurement": "T/C", "setting": "dose: 5.0 mg/kg/injection, schedule: Q07DX003 (ip), vehicle: saline with Tween-80", "value": "125 % of control"}, {"measurement": "survivor count", "setting": "dose: 40.0 mg/kg/injection, schedule: Q07DX003 (ip), vehicle: saline with Tween-80", "value": "1 of 10"}]}, {"smiles": "CCOC(=O)C1(c2ccccc2)C(=O)Oc2ccccc21", "note": "(stereo unspecified)", "values": [{"measurement": "T/C", "setting": "dose: 12.5 mg/kg/injection, schedule: Q07DX002 (ip), vehicle: saline with Tween-80", "value": "147 % of control"}, {"measurement": "T/C", "setting": "dose: 50.0 mg/kg/injection, schedule: Q07DX002 (ip), vehicle: saline with Tween-80", "value": "138 % of control"}, {"measurement": "T/C", "setting": "[3]", "value": "134 % of control"}, {"measurement": "T/C", "setting": "[4]", "value": "144 % of control"}]}, {"smiles": "N#C[Se-].c1ccc([Te+](c2ccccc2)c2ccccc2)cc1", "values": [{"measurement": "survivor count", "setting": "[5]", "value": "3 of 10 on day 20"}, {"measurement": "survivor count", "setting": "[6]", "value": "0 of 10 on day 20"}]}, {"smiles": "CCN(CC)CCCC(C)Nc1c2ccc(Cl)cc2nc2ccc(OC)cc12", "note": "(stereo unspecified)", "values": [{"measurement": "T/C", "setting": "dose: 64.0 mg/kg/injection, schedule: Q07DX003 (ip), vehicle: suspension in saline", "value": "128 % of control"}]}, {"smiles": "Clc1ccc(CN2COc3c(ccc4cccnc34)C2)cc1Cl", "values": [{"measurement": "T/C", "setting": "[4]", "value": "141 % of control"}, {"measurement": "T/C", "setting": "dose: 400.0 mg/kg/injection, schedule: Q07DX002 (ip), vehicle: saline with Tween-80", "value": "138 % of control"}]}, {"smiles": "NC(=O)/C=C/c1c[nH]c2nccnc12", "values": [{"measurement": "T/C", "setting": "[7]", "value": "141 % of control"}, {"measurement": "survivor count", "setting": "[8]", "value": "1 of 10 on day 20"}]}, {"smiles": "CN(C1=NS(=O)(=O)N=C(N(C)c2ccccc2)O1)c1ccccc1", "values": [{"measurement": "T/C", "setting": "dose: 50.0 mg/kg/injection, schedule: Q07DX003 (ip), vehicle: Klucel (hydroxypropylcellulose) (HPC)", "value": "131 % of control"}]}, {"smiles": "Nc1c(C(=O)O)[nH]c(=O)[nH]c1=O", "values": [{"measurement": "T/C", "setting": "[3]", "value": "130 % of control"}]}, {"smiles": "OCCN1CCN(CCCN2c3ccccc3Sc3ccc(C(F)(F)F)cc32)CC1", "values": [{"measurement": "survivor count", "setting": "dose: 100.0 mg/kg/injection, schedule: Q07DX002 (ip), vehicle: saline", "value": "6 of 10 on day 20"}]}, {"smiles": "CCC1CN2C(=N1)c1ccccc1-c1cc(Cl)ccc12", "note": "(stereo unspecified)", "values": [{"measurement": "T/C", "setting": "dose: 25.0 mg/kg/injection, schedule: Q07DX003 (ip), vehicle: suspension in saline", "value": "135 % of control"}, {"measurement": "T/C", "setting": "dose: 50.0 mg/kg/injection, schedule: Q07DX003 (ip), vehicle: suspension in saline", "value": "139 % of control [8 of 10 alive on day 20]"}, {"measurement": "survivor count", "setting": "dose: 100.0 mg/kg/injection, schedule: Q07DX003 (ip), vehicle: suspension in saline", "value": "4 of 10 on day 20"}]}, {"smiles": "ClC1=C(Cl)C2(Cl)C3C(Cl)C(Cl)CC3C1(Cl)C2(Cl)Cl", "note": "(stereo unspecified)", "values": [{"measurement": "T/C", "setting": "dose: 25.0 mg/kg/injection, schedule: Q07DX002 (ip), vehicle: other", "value": "133 % of control"}, {"measurement": "survivor count", "setting": "dose: 100.0 mg/kg/injection, schedule: Q07DX002 (ip), vehicle: other", "value": "6 of 10 on day 20"}, {"measurement": "survivor count", "setting": "dose: 200.0 mg/kg/injection, schedule: Q07DX002 (ip), vehicle: other", "value": "1 of 10 on day 20 and 4 of 10 on day 20"}, {"measurement": "survivor count", "setting": "dose: 400.0 mg/kg/injection, schedule: Q07DX002 (ip), vehicle: other", "value": "0 of 10 on day 20 and 2 of 10 on day 20"}, {"measurement": "survivor count", "setting": "dose: 800.0 mg/kg/injection, schedule: Q07DX002 (ip), vehicle: other", "value": "0 of 10 on day 20"}]}, {"smiles": "CCOC(OCC)C(=O)OCC(=O)[C@]1(O)Cc2c(O)c3c(c(O)c2[C@@H](OC2CC(N)C(O)C(C)O2)C1)C(=O)c1c(OC)cccc1C3=O", "note": "(stereo partly specified)", "values": [{"measurement": "T/C", "setting": "dose: 1.0 mg/kg/injection, schedule: Q07DX002 (ip), vehicle: water", "value": "140 % of control"}, {"measurement": "T/C", "setting": "dose: 8.0 mg/kg/injection, schedule: Q07DX002 (ip), vehicle: water", "value": "133 % of control"}, {"measurement": "survivor count", "setting": "dose: 16.0 mg/kg/injection, schedule: Q07DX002 (ip), vehicle: water", "value": "2 of 10 on day 20"}, {"measurement": "survivor count", "setting": "dose: 32.0 mg/kg/injection, schedule: Q07DX002 (ip), vehicle: water", "value": "0 of 10 on day 20"}]}, {"smiles": "COc1cccc(-c2cc(=O)c3cccc(CC(=O)O)c3o2)c1", "values": [{"measurement": "survivor count", "setting": "dose: 200.0 mg/kg/injection, schedule: Q07DX002 (ip), vehicle: saline", "value": "0 of 5 on day 20"}]}, {"smiles": "CC(C)CCCCCCCCCCCCC(=O)NCC(=O)NC1C(O)C(O)C(Nc2ncnc3nc[nH]c23)OC1C(O)CO", "note": "(stereo unspecified)", "values": [{"measurement": "T/C", "setting": "dose: 0.5 mg/kg/injection, schedule: Q07DX002 (ip), vehicle: saline", "value": "141 % of control"}, {"measurement": "survivor count", "setting": "dose: 8.0 mg/kg/injection, schedule: Q07DX002 (ip), vehicle: suspension in saline", "value": "3 of 10 on day 20"}]}, {"smiles": "CC1C=NNC1=O", "note": "(stereo unspecified)", "values": [{"measurement": "T/C", "setting": "[5]", "value": "148 % of control"}, {"measurement": "T/C", "setting": "[2]", "value": "141 % of control"}]}, {"smiles": "CC1=C(/C=C/C(C)=C/C=C/C(C)=C/CO)C(C)(C)CCC1", "values": [{"measurement": "T/C", "setting": "dose: 32.0 mg/kg/injection, schedule: Q07DX003 (ip), vehicle: saline with Tween-80", "value": "125 % of control"}, {"measurement": "T/C", "setting": "dose: 256.0 mg/kg/injection, schedule: Q07DX003 (ip), vehicle: saline with Tween-80", "value": "128 % of control [9 of 10 alive]"}]}, {"smiles": "CSc1cc(C)[o+]c(C)c1", "values": [{"measurement": "T/C", "setting": "[1]", "value": "128 % of control"}, {"measurement": "T/C", "setting": "[6]", "value": "135 % of control"}, {"measurement": "survivor count", "setting": "[2]", "value": "0 of 10 on day 20"}]}, {"smiles": "O=C1CN(CCN2CC(=O)N(CN3CCOCC3)C(=O)C2)CC(=O)N1CN1CCOCC1", "values": [{"measurement": "T/C", "setting": "[7]", "value": "137 % of control [9 of 10 alive on day 20]"}, {"measurement": "survivor count", "setting": "[8]", "value": "5 of 10 on day 20"}, {"measurement": "survivor count", "setting": "dose: 400.0 mg/kg/injection, schedule: Q07DX002 (ip), vehicle: water", "value": "0 of 10 on day 20"}, {"measurement": "survivor count", "setting": "dose: 800.0 mg/kg/injection, schedule: Q07DX002 (ip), vehicle: water", "value": "0 of 10 on day 20"}]}, {"smiles": "CN(C)CCN1C(=O)c2cccc3cc(N)cc(c23)C1=O", "values": [{"measurement": "T/C", "setting": "dose: 16.0 mg/kg/injection, schedule: Q07DX002 (ip), vehicle: saline with Tween-80", "value": "142 % of control"}, {"measurement": "survivor count", "setting": "dose: 128.0 mg/kg/injection, schedule: Q07DX002 (ip), vehicle: saline with Tween-80", "value": "1 of 10 on day 20"}]}]}
